Among the data in patent US20160060307A1 (KYUNGPOOK NATIONAL UNIVERSITY INDUSTRY ACADEMIC COOPERATION …, published 2016) are binding values, retold here.

Results are given in words; binding and its absence hold for the method and conditions named. Binding calls can cover weak binding; strength is not graded here.

Test [1] addresses integrin alphavbeta3 protein. Put plainly: SPR, integrin alphavbeta3 immobilised. Background: SPR reads the build-up and loss of mass on a sensor chip optically.
Test [2] concerns the target integrin alphavbeta3 protein. Put plainly: SPR, integrin alphavbeta3 protein immobilised on carboxymethyl dextran chip, ferritin in flow, 0.651-5.208 nM.
The target of test [3] is integrin alphavbeta3 protein. Put plainly: SPR, integrin alphavbeta3 protein immobilised on carboxymethyl dextran chip, ferritin in flow, 0.651-10.416 nM.

B1: FTL-RGD-AP1: ferritin having inserted RGD and AP1 peptides (designed binder, not shown: small tags and cut ends)
chain: MRGDGGGSGMSSQIRQNYSTDVEAAVNSLVNLYLQASYTYLSLGFYFDRDDVALEGVSHFFRELAEEKREGYERLLKMQNQRGGRALFQDIKKPAEDEWGKTPDAMKAAMALEKKLNQALLDLHALGSARTDPHLCDFLETHFLDEEVKLIKKMGDHLTNLHRGSRKRLDRNGGPEAGLGEYLFERLTLKHD
modifications: One monomer is given; it assembles into a 24-mer ferritin cage.
B1: the binding result in test [1] and in test [2] was “binds” throughout.

B2: FTL-GRGDSP-AP1: ferritin having inserted GRGDSP and AP1 peptides (designed binder, not shown: small tags and cut ends)
chain: MGRGDSPGGGSGMSSQIRQNYSTDVEAAVNSLVNLYLQASYTYLSLGFYFDRDDVALEGVSHFFRELAEEKREGYERLLKMQNQRGGRALFQDIKKPAEDEWGKTPDAMKAAMALEKKLNQALLDLHALGSARTDPHLCDFLETHFLDEEVKLIKKMGDHLTNLHRGSRKRLDRNGGPEAGLGEYLFERLTLKHD
modifications: One monomer is given; it assembles into a 24-mer ferritin cage.
Turning to B2, the binding entry in test [1] and in test [3] was “binds” throughout.
